In article PMC3305383:
These are yes or no findings as the source states them, for the method shown. For some of these results: In cells and extracts the contact can be indirect. Some binding calls cover weakened binding; strength is not graded here. For some of these results: Where a sequence is shown, tags or fusion partners need not be part of it. Each block holds one molecule with its values, some of them ahead of it.

Sequences of proteins named here, by UniProt entry; tags and fusion partners are left off.
UniProt Q61466: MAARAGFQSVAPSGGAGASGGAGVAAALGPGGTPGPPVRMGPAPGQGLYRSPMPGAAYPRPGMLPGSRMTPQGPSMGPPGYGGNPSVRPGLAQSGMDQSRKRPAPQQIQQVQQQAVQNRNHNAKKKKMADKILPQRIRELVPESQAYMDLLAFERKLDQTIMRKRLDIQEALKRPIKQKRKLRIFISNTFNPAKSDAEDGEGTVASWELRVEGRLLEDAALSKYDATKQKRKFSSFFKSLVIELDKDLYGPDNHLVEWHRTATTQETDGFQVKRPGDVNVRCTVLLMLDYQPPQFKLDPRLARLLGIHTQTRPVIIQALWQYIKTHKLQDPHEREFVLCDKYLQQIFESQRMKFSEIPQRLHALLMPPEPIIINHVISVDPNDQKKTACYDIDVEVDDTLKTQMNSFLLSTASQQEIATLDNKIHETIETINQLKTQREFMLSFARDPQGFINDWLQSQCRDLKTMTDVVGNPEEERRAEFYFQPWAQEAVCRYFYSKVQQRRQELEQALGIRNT
UniProt Q6P9Z1: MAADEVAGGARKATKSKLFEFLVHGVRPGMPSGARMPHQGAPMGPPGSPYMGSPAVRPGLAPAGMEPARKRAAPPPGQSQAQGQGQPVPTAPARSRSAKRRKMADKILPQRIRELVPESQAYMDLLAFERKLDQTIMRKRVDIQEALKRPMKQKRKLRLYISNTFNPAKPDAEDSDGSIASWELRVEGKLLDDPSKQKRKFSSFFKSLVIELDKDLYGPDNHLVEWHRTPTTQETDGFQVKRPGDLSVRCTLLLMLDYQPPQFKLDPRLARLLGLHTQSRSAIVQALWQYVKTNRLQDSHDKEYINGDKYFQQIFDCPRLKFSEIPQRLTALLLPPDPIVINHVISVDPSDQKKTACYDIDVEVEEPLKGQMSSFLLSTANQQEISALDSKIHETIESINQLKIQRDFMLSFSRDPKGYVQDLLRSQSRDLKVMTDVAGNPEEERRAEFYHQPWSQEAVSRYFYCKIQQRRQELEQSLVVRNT
UniProt P97496: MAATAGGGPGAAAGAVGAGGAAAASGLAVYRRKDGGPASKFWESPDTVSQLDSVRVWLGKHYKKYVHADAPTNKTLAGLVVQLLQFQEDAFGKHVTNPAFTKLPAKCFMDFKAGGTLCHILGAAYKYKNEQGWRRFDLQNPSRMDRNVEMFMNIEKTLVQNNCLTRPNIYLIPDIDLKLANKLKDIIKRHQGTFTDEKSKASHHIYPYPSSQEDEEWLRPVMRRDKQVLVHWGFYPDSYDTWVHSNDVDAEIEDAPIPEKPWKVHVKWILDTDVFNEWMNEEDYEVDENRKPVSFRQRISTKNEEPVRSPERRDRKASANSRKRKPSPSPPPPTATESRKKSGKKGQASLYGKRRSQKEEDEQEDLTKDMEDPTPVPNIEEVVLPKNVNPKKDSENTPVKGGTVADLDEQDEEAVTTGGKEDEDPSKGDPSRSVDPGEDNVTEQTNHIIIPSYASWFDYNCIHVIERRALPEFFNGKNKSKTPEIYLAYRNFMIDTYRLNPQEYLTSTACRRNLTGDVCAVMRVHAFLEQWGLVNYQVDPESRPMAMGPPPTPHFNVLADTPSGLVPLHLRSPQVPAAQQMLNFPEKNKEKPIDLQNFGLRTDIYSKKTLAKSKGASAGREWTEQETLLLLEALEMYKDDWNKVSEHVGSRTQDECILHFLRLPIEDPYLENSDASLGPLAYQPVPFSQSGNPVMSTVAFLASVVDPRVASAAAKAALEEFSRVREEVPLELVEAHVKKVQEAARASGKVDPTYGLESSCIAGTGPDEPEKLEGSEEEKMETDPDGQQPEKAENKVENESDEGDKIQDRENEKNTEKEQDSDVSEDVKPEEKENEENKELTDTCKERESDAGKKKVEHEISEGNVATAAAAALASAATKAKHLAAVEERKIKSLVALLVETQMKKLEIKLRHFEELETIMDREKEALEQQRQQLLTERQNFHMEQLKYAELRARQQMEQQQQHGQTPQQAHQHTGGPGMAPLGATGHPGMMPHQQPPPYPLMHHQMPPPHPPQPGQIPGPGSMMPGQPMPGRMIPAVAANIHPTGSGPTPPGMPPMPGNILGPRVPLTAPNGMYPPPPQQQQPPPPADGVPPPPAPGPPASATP

Key:
[1] = biological target: T1, GST-Tbx1 (UniProt P70323); experiment: pull-down; GST-Tbx1 pull-down from a lysate of P19Cl6 cells overexpressing Baf60a; ProFound Pull-Down GST Protein:Protein Interaction Kit (PIERCE); Western blot; only the target purified
T1 sequence: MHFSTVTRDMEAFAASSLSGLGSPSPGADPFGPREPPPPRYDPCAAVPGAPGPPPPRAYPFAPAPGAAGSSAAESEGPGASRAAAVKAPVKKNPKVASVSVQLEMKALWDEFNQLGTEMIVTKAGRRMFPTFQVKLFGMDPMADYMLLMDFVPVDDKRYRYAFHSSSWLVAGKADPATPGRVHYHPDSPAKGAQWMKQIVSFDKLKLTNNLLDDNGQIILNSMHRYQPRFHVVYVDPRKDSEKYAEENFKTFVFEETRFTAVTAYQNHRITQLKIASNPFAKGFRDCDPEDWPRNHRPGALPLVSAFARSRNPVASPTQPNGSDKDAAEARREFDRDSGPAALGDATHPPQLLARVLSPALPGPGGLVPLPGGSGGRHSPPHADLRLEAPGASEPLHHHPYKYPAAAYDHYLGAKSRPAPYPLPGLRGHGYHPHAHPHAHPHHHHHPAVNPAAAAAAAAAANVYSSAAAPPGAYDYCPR

[2] = biological target: T2, Tbx1-3HA (UniProt P70323); experiment: co-IP; P19Cl6 cells transiently co-transfected with Tbx1-3HA and Baf60c-Flag; anti-HA immunoprecipitation kit; Western blot with anti-HA and anti-Flag
T2 sequence: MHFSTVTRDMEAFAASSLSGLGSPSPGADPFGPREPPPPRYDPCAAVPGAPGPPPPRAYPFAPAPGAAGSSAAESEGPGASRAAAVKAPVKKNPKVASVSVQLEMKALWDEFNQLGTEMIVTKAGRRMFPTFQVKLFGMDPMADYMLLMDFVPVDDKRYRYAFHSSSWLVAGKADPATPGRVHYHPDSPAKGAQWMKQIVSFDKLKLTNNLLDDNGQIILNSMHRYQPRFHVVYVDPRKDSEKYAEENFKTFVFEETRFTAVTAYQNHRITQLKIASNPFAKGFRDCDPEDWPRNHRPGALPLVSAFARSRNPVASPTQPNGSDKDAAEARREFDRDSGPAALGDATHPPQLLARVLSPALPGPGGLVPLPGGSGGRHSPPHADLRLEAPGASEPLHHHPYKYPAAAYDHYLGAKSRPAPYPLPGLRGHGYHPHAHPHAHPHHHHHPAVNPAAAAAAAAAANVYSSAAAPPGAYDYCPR

[3] = biological target: T3, Tbx1 (mouse (endogenous in P19Cl6)) (UniProt P70323); experiment: co-IP; about 100 ug nuclear extract of P19Cl6 cells, endogenous proteins; IP with anti-Tbx1 antibody or rabbit IgG, Protein A/G PLUS agarose at 4°C overnight; 6 washes with IPP150 (10 mM Tris-HCl pH 8.0, 150 mM NaCl, 0.1% NP-40); Western blot
T3 sequence: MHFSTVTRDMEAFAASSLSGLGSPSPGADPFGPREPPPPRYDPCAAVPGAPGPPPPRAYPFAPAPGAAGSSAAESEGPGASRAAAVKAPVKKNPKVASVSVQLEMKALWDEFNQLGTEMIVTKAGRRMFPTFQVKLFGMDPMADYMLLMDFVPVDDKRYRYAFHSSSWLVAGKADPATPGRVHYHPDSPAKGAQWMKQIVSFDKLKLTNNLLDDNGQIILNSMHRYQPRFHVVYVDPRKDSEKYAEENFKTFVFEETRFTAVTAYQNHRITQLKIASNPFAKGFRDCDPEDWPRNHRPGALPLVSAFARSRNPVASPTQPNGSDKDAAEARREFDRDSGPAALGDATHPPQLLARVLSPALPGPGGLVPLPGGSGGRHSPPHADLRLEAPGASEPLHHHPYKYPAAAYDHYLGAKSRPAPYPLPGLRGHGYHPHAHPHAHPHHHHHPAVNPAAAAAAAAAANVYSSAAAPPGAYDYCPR

[4] = biological target: T4, Tbx1-TEV-ProteinA (UniProt P70323); experiment: native affinity purification (Protein A tag on IgG sepharose) with Western blot; nuclear extracts of P19-Tbx1-PA cells on IgG sepharose columns; Tbx1-containing complexes released by TEV cleavage; Western blot with anti-Baf60a and anti-p300
T4 sequence: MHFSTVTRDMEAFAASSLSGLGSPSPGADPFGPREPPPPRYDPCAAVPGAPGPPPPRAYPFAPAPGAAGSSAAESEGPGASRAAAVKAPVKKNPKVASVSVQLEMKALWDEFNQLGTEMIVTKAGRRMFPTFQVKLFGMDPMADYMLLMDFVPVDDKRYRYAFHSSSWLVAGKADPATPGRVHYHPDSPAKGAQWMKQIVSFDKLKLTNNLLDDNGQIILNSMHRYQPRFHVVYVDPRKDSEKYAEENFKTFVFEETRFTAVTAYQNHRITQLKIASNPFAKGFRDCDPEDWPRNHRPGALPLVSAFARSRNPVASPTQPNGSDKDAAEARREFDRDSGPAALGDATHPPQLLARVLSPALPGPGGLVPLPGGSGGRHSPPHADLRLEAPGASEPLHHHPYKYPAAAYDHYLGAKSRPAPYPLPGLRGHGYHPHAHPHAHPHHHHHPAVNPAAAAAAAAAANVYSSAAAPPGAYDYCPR

[5] = biological target: Baf60a (mouse (endogenous in E9.5 embryos)) (UniProt Q61466); experiment: co-IP; nuclear extracts of E9.5 WT (and Tbx1-/- control) mouse embryos, endogenous proteins; IP with anti-Baf60a antibody, Western blot with anti-Tbx1

binding [1]: binds
Molecule: Baf60a (overexpressed) (from UniProt Q61466 1-515)

binding [2]: no binding
Molecule: Baf60c-Flag (from UniProt Q6P9Z1 1-483)

binding [3]: no binding
Molecule: Baf155 (from UniProt P97496 1-1104)

binding [3]: binds | binding [4]: binds
Molecule: Baf60a (from UniProt Q61466 1-515)

binding [3]: binds
B1: Setd7 (enzyme, UniProt Q8VHL1 1-366)
chain: MDSDDEVVEEAVEGHLDDDGLPHGFCTVTYSSTDRFEGNFVHGEKNGRGKFFFFDGSTLEGYYVDDALQGQGVYTYEDGGVLQGTYVDGELNGPAQEYDSDGRLIFKGQYKDNNRHGVCWIHYPDGGSLVGEVNEDGEMTGEKIAYVYPDQRTALYGKFIDGEMLEGKLATLMATEEGRPHFEVTSGSSVYHFDKSTSSCISSDALLPDPYESERVYVADSLISSAGEGLFSKVAVGPNTVMSFYNGVRITHQEVDSRDWALNGNTLSLDEETVIDVPEPYNHVSKYCASLGHKANHSFTPNCVYDLFVHPRFGPIKCIRTLRAVEAEEELTVAYGYDHSPPGKSGPEAPEWYQVELKAFQATQQK

binding [5]: binds
B2: Tbx1 (protein, UniProt P70323 1-479)
chain: MHFSTVTRDMEAFAASSLSGLGSPSPGADPFGPREPPPPRYDPCAAVPGAPGPPPPRAYPFAPAPGAAGSSAAESEGPGASRAAAVKAPVKKNPKVASVSVQLEMKALWDEFNQLGTEMIVTKAGRRMFPTFQVKLFGMDPMADYMLLMDFVPVDDKRYRYAFHSSSWLVAGKADPATPGRVHYHPDSPAKGAQWMKQIVSFDKLKLTNNLLDDNGQIILNSMHRYQPRFHVVYVDPRKDSEKYAEENFKTFVFEETRFTAVTAYQNHRITQLKIASNPFAKGFRDCDPEDWPRNHRPGALPLVSAFARSRNPVASPTQPNGSDKDAAEARREFDRDSGPAALGDATHPPQLLARVLSPALPGPGGLVPLPGGSGGRHSPPHADLRLEAPGASEPLHHHPYKYPAAAYDHYLGAKSRPAPYPLPGLRGHGYHPHAHPHAHPHHHHHPAVNPAAAAAAAAAANVYSSAAAPPGAYDYCPR
